{"source": "PubChem BioAssay AID1053208 – Peter MacCallum Cancer Centre – 2014", "test": "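Genes whose silencing cuts survival of bone tumour cells only with doxorubicin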 (primary screen)", "cell system": "mouse osteosarcoma cells, early-passage culture from an engineered mouse model of fibroblastic bone tumour", "knock-down reagent": "siRNA pool against mouse genes, 40 nM", "time to read-out": "about 120 h (48 h before drug, then 72 h with drug)", "treatment": "doxorubicin 100 nM for 72 h, roughly 30-40% inhibitory dose", "measured": "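Viability read as ATP luminescence after 72 h of 100 nM doxorubicin or none, duplicate wells averaged, scaled to non-targeting siRNA, then expressed as robust z-scores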", "direction": "viability z-score with doxorubicin: higher = more viable cells under doxorubicin; viability z-score without drug: higher = more viable cells with knock-down alone", "active means": "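a pool counts as active when its viability z-score with doxorubicin is -2 or below and its z-score without drug lies between -2 and 2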", "note": "In all, the deposit lists about 17,000 reagents; this is a part drawn at random. Over the whole deposit, 788 (4.7%) were called active. 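Calls rest on z-score classes alone; an extra cut-off of viability at most 70% of control was not applied to them.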 Not all columns of the deposit are shown. No sequences are given here."}
{"gene knocked down": "Slc6a15 (GeneID 103098)", "PubChem SID": "SID152267585", "combined z-score class": "no change with or without drug", "viability z-score with doxorubicin": 1.12, "viability z-score without drug": 1.69, "Outcome": "inactive"}
{"gene knocked down": "Slc6a15 (GeneID 103098)", "PubChem SID": "SID152333729", "combined z-score class": "no change with or without drug", "viability z-score with doxorubicin": 0.22, "viability z-score without drug": 1.18, "Outcome": "inactive"}
{"gene knocked down": "Or14j2 (GeneID 258286)", "PubChem SID": "SID152283881", "combined z-score class": "low cell count with doxorubicin only", "viability z-score with doxorubicin": -2.02, "viability z-score without drug": -1.85, "Outcome": "active"}
{"gene knocked down": "Mpl (GeneID 17480)", "PubChem SID": "SID152326758", "combined z-score class": "no change with or without drug", "viability z-score with doxorubicin": -1.12, "viability z-score without drug": 0.51, "Outcome": "inactive"}
{"gene knocked down": "Cmtm5 (GeneID 67272)", "PubChem SID": "SID152294179", "combined z-score class": "no change with or without drug", "viability z-score with doxorubicin": 0.79, "viability z-score without drug": -0.67, "Outcome": "inactive"}
{"gene knocked down": "Gm5114 (GeneID 330513)", "PubChem SID": "SID152267280", "combined z-score class": "no change with or without drug", "viability z-score with doxorubicin": -0.67, "viability z-score without drug": -0.34, "Outcome": "inactive"}
{"gene knocked down": "Sirt2 (GeneID 64383)", "PubChem SID": "SID152275204", "combined z-score class": "no change with or without drug", "viability z-score with doxorubicin": 1.24, "viability z-score without drug": 0.84, "Outcome": "inactive"}
{"gene knocked down": "Nfe2l3 (GeneID 18025)", "PubChem SID": "SID152261875", "combined z-score class": "no change with or without drug", "viability z-score with doxorubicin": 1.57, "viability z-score without drug": 0.67, "Outcome": "inactive"}
{"gene knocked down": "Mtrf1 (GeneID 211253)", "PubChem SID": "SID152283040", "combined z-score class": "no change with or without drug", "viability z-score with doxorubicin": -1.12, "viability z-score without drug": 0, "Outcome": "inactive"}
{"gene knocked down": "Ddx55 (GeneID 67848)", "PubChem SID": "SID152267205", "combined z-score class": "no change with or without drug", "viability z-score with doxorubicin": 0.67, "viability z-score without drug": -1.01, "Outcome": "inactive"}
{"gene knocked down": "Glb1 (GeneID 12091)", "PubChem SID": "SID152338422", "combined z-score class": "no change with or without drug", "viability z-score with doxorubicin": 0.9, "viability z-score without drug": -0.51, "Outcome": "inactive"}
{"gene knocked down": "Slc7a11 (GeneID 26570)", "PubChem SID": "SID152303194", "combined z-score class": "no change with or without drug", "viability z-score with doxorubicin": -1.57, "viability z-score without drug": -0.17, "Outcome": "inactive"}
{"gene knocked down": "Rin1 (GeneID 225870)", "PubChem SID": "SID152298296", "combined z-score class": "no change with or without drug", "viability z-score with doxorubicin": 0, "viability z-score without drug": 1.85, "Outcome": "inactive"}
{"gene knocked down": "Tcl1b2 (GeneID 27381)", "PubChem SID": "SID152341010", "combined z-score class": "low cell count with doxorubicin only", "viability z-score with doxorubicin": -3.37, "viability z-score without drug": -1.01, "Outcome": "active"}
{"gene knocked down": "Erc1 (GeneID 111173)", "PubChem SID": "SID152342875", "combined z-score class": "no change with or without drug", "viability z-score with doxorubicin": -1.12, "viability z-score without drug": -0.51, "Outcome": "inactive"}
{"gene knocked down": "Or8j3b (GeneID 404325)", "PubChem SID": "SID152274501", "combined z-score class": "no change with or without drug", "viability z-score with doxorubicin": 0.45, "viability z-score without drug": -1.18, "Outcome": "inactive"}
{"gene knocked down": "Avpi1 (GeneID 69534)", "PubChem SID": "SID152319777", "combined z-score class": "no change with or without drug", "viability z-score with doxorubicin": 0, "viability z-score without drug": -0.67, "Outcome": "inactive"}
{"gene knocked down": "Spast (GeneID 50850)", "PubChem SID": "SID152329192", "combined z-score class": "no change with or without drug", "viability z-score with doxorubicin": 1.12, "viability z-score without drug": 0.84, "Outcome": "inactive"}
{"gene knocked down": "Stn1 (GeneID 108689)", "PubChem SID": "SID152288519", "combined z-score class": "no change with or without drug", "viability z-score with doxorubicin": -0.45, "viability z-score without drug": 0.17, "Outcome": "inactive"}
{"gene knocked down": "Nefh (GeneID 380684)", "PubChem SID": "SID152335782", "combined z-score class": "no change with or without drug", "viability z-score with doxorubicin": 1.01, "viability z-score without drug": 1.52, "Outcome": "inactive"}
{"gene knocked down": "Armcx2 (GeneID 67416)", "PubChem SID": "SID152275700", "combined z-score class": "no change with or without drug", "viability z-score with doxorubicin": 0, "viability z-score without drug": 0.51, "Outcome": "inactive"}
{"gene knocked down": "Or5l13 (GeneID 258814)", "PubChem SID": "SID152268952", "combined z-score class": "no change with or without drug", "viability z-score with doxorubicin": -0.45, "viability z-score without drug": 0.51, "Outcome": "inactive"}
{"gene knocked down": "Spink8 (GeneID 78709)", "PubChem SID": "SID152318631", "combined z-score class": "no change with or without drug", "viability z-score with doxorubicin": 1.35, "viability z-score without drug": 1.52, "Outcome": "inactive"}
{"gene knocked down": "Pcdhga9 (GeneID 93717)", "PubChem SID": "SID152342436", "combined z-score class": "low cell count with doxorubicin only", "viability z-score with doxorubicin": -2.7, "viability z-score without drug": -1.18, "Outcome": "active"}
{"gene knocked down": "Or1e21 (GeneID 259027)", "PubChem SID": "SID152284707", "combined z-score class": "no change with or without drug", "viability z-score with doxorubicin": -0.45, "viability z-score without drug": 1.18, "Outcome": "inactive"}
{"gene knocked down": "Hsd3b7 (GeneID 101502)", "PubChem SID": "SID152337848", "combined z-score class": "no change with or without drug", "viability z-score with doxorubicin": 1.24, "viability z-score without drug": 0.17, "Outcome": "inactive"}
{"gene knocked down": "Olfml1 (GeneID 244198)", "PubChem SID": "SID152310571", "combined z-score class": "no change with or without drug", "viability z-score with doxorubicin": 0, "viability z-score without drug": -0.84, "Outcome": "inactive"}
{"gene knocked down": "Gabrq (GeneID 57249)", "PubChem SID": "SID152334508", "combined z-score class": "no change with or without drug", "viability z-score with doxorubicin": 1.35, "viability z-score without drug": 0.67, "Outcome": "inactive"}

Not a retest: entries from further up.
{"gene knocked down": "Olfml1 (GeneID 244198)", "PubChem SID": "SID152310571", "combined z-score class": "no change with or without drug", "viability z-score with doxorubicin": 0, "viability z-score without drug": -0.84, "Outcome": "inactive"}
{"gene knocked down": "Gabrq (GeneID 57249)", "PubChem SID": "SID152334508", "combined z-score class": "no change with or without drug", "viability z-score with doxorubicin": 1.35, "viability z-score without drug": 0.67, "Outcome": "inactive"}
